According to the supplement of paper PMC10077471:
Whole data set: some 1,900 compounds, median “excess over highest single agent (ExcessHSA) synergy score, 6x6 matrix” near -83, cut for the lowest 2% near -370. The list shows a part of the results.

System: NCI-H446
Experiment: excess over highest single agent (ExcessHSA) synergy score, 6x6 matrix; higher = less synergy (more negative = stronger synergy)
Settings: 72 h; CellTiter-Glo viability

Row | SMILES | excess over highest single agent
1 | Nc1cccc2c1CN(C1CCC(=O)NC1=O)C2=O (stereo unspecified) + Cc1sc2c(c1C)C(c1ccc(Cl)cc1)=N[C@@H](CC(=O)OC(C)(C)C)c1nnc(C)n1-2 [NCGC00250412-19] | -79.8
2 | COc1cc2nc(-c3cc(F)ccc3O)nc(N[C@@H]3CNC[C@H]3C(C)(C)O)c2cc1OC + Cc1sc2c(c1C)C(c1ccc(Cl)cc1)=N[C@@H](CC(=O)OC(C)(C)C)c1nnc(C)n1-2 [NCGC00250412-19] | 40.9
3 | CN1C(=O)CCS(=O)(=O)C1c1ccc(Cl)cc1 (stereo unspecified) + Cc1sc2c(c1C)C(c1ccc(Cl)cc1)=N[C@@H](CC(=O)OC(C)(C)C)c1nnc(C)n1-2 [NCGC00250412-19] | -51.7
4 | CN(C)[C@@H]1C(=O)C(C(N)=O)=C(O)[C@@]2(O)C(=O)C3=C(O)c4c(O)cccc4[C@@](C)(O)[C@H]3[C@H](O)[C@@H]12 + Cc1sc2c(c1C)C(c1ccc(Cl)cc1)=N[C@@H](CC(=O)OC(C)(C)C)c1nnc(C)n1-2 [NCGC00250412-19] | -9.12
5 | Cn1c2ccccc2c2c3c(c4c5ccccc5n(CCC#N)c4c21)CNC3=O + Cc1sc2c(c1C)C(c1ccc(Cl)cc1)=N[C@@H](CC(=O)OC(C)(C)C)c1nnc(C)n1-2 [NCGC00250412-19] | 242
6 | CCc1ccc(C(=O)Nc2cc(CN3CCN(C)CC3)cc(C(F)(F)F)c2)cc1C#Cc1cnc2ccnn2c1 + Cc1sc2c(c1C)C(c1ccc(Cl)cc1)=N[C@@H](CC(=O)OC(C)(C)C)c1nnc(C)n1-2 [NCGC00250412-19] | -7.02
7 | Cc1ccccc1N1C(=O)c2cc(S(N)(=O)=O)c(Cl)cc2NC1C (stereo unspecified) + Cc1sc2c(c1C)C(c1ccc(Cl)cc1)=N[C@@H](CC(=O)OC(C)(C)C)c1nnc(C)n1-2 [NCGC00250412-19] | -15.5
8 | O=C1N(c2ccccc2)c2ccccc2C1(Cc1ccncc1)Cc1ccncc1 + Cc1sc2c(c1C)C(c1ccc(Cl)cc1)=N[C@@H](CC(=O)OC(C)(C)C)c1nnc(C)n1-2 [NCGC00250412-19] | -197
9 | C=CC(=O)N1CCC[C@@H](n2nc(-c3ccc(Oc4ccccc4)cc3)c3c(N)ncnc32)C1 + Cc1sc2c(c1C)C(c1ccc(Cl)cc1)=N[C@@H](CC(=O)OC(C)(C)C)c1nnc(C)n1-2 [NCGC00250412-19] | -93.4
10 | O=C(O)c1ccccc1C(=O)Nc1ccc(-c2ccccc2)cc1 + Cc1sc2c(c1C)C(c1ccc(Cl)cc1)=N[C@@H](CC(=O)OC(C)(C)C)c1nnc(C)n1-2 [NCGC00250412-19] | -86.9
11 | CC1=C(CC(=O)O)c2cc(F)ccc2/C1=C\c1ccc([S+](C)[O-])cc1 (stereo unspecified) + Cc1sc2c(c1C)C(c1ccc(Cl)cc1)=N[C@@H](CC(=O)OC(C)(C)C)c1nnc(C)n1-2 [NCGC00250412-19] | -62.7

Fetched one by one from the entries so far (two):
Row | SMILES | excess over highest single agent
11 | CC1=C(CC(=O)O)c2cc(F)ccc2/C1=C\c1ccc([S+](C)[O-])cc1 (stereo unspecified) + Cc1sc2c(c1C)C(c1ccc(Cl)cc1)=N[C@@H](CC(=O)OC(C)(C)C)c1nnc(C)n1-2 [NCGC00250412-19] | -62.7
3 | CN1C(=O)CCS(=O)(=O)C1c1ccc(Cl)cc1 (stereo unspecified) + Cc1sc2c(c1C)C(c1ccc(Cl)cc1)=N[C@@H](CC(=O)OC(C)(C)C)c1nnc(C)n1-2 [NCGC00250412-19] | -51.7
